Two molecules from publication doi:10.1101/2021.04.30.442090 can be followed below.

Common to all, as to test: co-IP
In assay [1] the target is T1, GFP-tagged Pop1 (S. cerevisiae) (UniProt P41812).
T1 sequence: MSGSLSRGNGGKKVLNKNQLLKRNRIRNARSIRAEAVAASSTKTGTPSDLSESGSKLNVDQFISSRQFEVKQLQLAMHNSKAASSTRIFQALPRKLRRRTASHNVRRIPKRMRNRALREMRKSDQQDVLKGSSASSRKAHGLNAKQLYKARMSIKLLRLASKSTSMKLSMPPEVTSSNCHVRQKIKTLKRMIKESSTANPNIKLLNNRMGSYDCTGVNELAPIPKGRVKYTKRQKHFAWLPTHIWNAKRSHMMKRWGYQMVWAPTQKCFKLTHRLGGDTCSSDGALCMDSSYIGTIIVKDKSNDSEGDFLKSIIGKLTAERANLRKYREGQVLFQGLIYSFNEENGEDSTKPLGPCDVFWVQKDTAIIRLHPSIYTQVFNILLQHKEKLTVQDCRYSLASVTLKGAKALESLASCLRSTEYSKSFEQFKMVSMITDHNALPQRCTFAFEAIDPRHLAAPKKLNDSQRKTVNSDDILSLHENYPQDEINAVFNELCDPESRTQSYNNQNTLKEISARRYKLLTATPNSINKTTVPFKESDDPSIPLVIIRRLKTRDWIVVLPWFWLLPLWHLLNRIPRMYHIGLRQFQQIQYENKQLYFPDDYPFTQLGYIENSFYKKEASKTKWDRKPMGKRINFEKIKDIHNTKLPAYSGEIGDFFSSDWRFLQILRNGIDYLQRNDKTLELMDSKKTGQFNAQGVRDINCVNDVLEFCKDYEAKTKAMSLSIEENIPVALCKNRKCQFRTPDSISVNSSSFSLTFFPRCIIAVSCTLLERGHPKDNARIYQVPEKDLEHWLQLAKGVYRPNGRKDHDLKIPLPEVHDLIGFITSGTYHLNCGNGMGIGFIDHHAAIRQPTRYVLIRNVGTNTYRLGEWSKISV

Assay [2] deals with T2, GFP-tagged Smb1 (S. cerevisiae) (UniProt P40018).
T2 sequence: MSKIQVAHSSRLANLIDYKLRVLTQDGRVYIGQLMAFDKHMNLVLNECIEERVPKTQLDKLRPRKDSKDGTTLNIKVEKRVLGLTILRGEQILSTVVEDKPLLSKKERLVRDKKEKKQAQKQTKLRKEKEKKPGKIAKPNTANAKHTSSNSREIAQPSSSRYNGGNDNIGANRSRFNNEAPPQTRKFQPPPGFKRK

In assay [3] the target is T3, GFP-tagged Est1 (S. cerevisiae) (UniProt P17214).
T3 sequence: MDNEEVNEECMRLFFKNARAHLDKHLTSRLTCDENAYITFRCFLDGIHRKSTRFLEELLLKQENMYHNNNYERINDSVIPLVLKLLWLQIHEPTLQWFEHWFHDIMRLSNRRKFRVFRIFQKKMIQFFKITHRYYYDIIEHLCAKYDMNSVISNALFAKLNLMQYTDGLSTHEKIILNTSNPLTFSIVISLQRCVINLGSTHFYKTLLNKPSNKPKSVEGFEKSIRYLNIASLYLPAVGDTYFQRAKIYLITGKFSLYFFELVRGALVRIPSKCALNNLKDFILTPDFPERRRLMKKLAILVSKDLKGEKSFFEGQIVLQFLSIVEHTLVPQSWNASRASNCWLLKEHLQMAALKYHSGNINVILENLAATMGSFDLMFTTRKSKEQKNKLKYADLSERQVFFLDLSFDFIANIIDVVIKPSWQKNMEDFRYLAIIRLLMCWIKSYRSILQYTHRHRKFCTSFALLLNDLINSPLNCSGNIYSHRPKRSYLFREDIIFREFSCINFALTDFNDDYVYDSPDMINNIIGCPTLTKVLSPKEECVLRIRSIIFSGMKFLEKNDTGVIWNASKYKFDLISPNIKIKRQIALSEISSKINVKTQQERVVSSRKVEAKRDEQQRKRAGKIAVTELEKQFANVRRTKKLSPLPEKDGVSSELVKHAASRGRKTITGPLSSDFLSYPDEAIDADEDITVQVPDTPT

Assay [4] concerns the target T4, myc-tagged Mtr10 (S. cerevisiae) (UniProt Q99189).
T4 sequence: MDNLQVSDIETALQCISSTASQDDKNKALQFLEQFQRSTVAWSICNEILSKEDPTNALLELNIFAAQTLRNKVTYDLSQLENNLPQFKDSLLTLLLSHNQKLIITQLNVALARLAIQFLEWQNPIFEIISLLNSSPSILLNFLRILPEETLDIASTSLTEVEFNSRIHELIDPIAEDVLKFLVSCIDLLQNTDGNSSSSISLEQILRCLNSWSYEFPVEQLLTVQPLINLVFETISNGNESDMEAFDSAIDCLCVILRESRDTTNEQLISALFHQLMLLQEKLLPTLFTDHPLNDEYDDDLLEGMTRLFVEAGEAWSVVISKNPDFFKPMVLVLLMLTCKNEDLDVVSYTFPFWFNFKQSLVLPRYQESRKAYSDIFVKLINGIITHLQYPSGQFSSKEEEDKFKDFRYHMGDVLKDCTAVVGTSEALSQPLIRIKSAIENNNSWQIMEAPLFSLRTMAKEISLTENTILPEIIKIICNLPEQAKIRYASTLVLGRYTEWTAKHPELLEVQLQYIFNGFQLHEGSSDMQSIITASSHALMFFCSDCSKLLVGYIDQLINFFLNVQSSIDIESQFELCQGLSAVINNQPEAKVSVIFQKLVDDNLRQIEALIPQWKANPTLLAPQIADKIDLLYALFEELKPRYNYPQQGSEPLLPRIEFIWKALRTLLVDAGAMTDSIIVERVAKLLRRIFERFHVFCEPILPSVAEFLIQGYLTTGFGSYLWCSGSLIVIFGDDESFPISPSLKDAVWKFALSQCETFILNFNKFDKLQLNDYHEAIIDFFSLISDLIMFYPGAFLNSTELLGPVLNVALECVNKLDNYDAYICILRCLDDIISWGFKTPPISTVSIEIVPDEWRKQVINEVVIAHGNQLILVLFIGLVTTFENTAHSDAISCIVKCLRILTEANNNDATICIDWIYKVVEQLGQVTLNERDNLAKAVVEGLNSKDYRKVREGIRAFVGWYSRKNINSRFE

Results are given in words; binding and its absence hold for the method and conditions named. In cells and extracts the contact can be indirect. Some binding calls cover weakened binding; strength is not graded here. Tags and fused reporters may be left off the sequences shown.

B1: myc-tagged Mtr10 (protein, UniProt Q99189 1-972)
chain: MDNLQVSDIETALQCISSTASQDDKNKALQFLEQFQRSTVAWSICNEILSKEDPTNALLELNIFAAQTLRNKVTYDLSQLENNLPQFKDSLLTLLLSHNQKLIITQLNVALARLAIQFLEWQNPIFEIISLLNSSPSILLNFLRILPEETLDIASTSLTEVEFNSRIHELIDPIAEDVLKFLVSCIDLLQNTDGNSSSSISLEQILRCLNSWSYEFPVEQLLTVQPLINLVFETISNGNESDMEAFDSAIDCLCVILRESRDTTNEQLISALFHQLMLLQEKLLPTLFTDHPLNDEYDDDLLEGMTRLFVEAGEAWSVVISKNPDFFKPMVLVLLMLTCKNEDLDVVSYTFPFWFNFKQSLVLPRYQESRKAYSDIFVKLINGIITHLQYPSGQFSSKEEEDKFKDFRYHMGDVLKDCTAVVGTSEALSQPLIRIKSAIENNNSWQIMEAPLFSLRTMAKEISLTENTILPEIIKIICNLPEQAKIRYASTLVLGRYTEWTAKHPELLEVQLQYIFNGFQLHEGSSDMQSIITASSHALMFFCSDCSKLLVGYIDQLINFFLNVQSSIDIESQFELCQGLSAVINNQPEAKVSVIFQKLVDDNLRQIEALIPQWKANPTLLAPQIADKIDLLYALFEELKPRYNYPQQGSEPLLPRIEFIWKALRTLLVDAGAMTDSIIVERVAKLLRRIFERFHVFCEPILPSVAEFLIQGYLTTGFGSYLWCSGSLIVIFGDDESFPISPSLKDAVWKFALSQCETFILNFNKFDKLQLNDYHEAIIDFFSLISDLIMFYPGAFLNSTELLGPVLNVALECVNKLDNYDAYICILRCLDDIISWGFKTPPISTVSIEIVPDEWRKQVINEVVIAHGNQLILVLFIGLVTTFENTAHSDAISCIVKCLRILTEANNNDATICIDWIYKVVEQLGQVTLNERDNLAKAVVEGLNSKDYRKVREGIRAFVGWYSRKNINSRFE
Turning to B1, the binding result in assay [1] is recorded as “no binding”; in assay [2], “binds”; in assay [3], “no binding”.

B2: Yku70 (protein, UniProt P32807 1-602)
chain: MRSVTNAFGNSGELNDQVDETGYRKFDIHEGILFCIELSETMFKESSDLEYKSPLLEILESLDELMSQLVITRPGTAIGCYFYYCNREDAKEGIYELFPLRDINATFMKKLNDLLEDLSSGRISLYDYFMFQQTGSEKQVRLSVLFTFMLDTFLEEIPGQKQLSNKRVFLFTDIDKPQEAQDIDERARLRRLTIDLFDNKVNFATFFIGYADKPFDNEFYSDILQLGSHTNENTGLDSEFDGPSTKPIDAKYIKSRILRKKEVKRIMFQCPLILDEKTNFIVGVKGYTMYTHEKAGVRYKLVYEHEDIRQEAYSKRKFLNPITGEDVTGKTVKVYPYGDLDINLSDSQDQIVMEAYTQKDAFLKIIGFRSSSKSIHYFNNIDKSSFIVPDEAKYEGSIRTLASLLKILRKKDKIAILWGKLKSNSHPSLYTLSPSSVKDYNEGFYLYRVPFLDEIRKFPSLLSYDDGSEHKLDYDNMKKVTQSIMGYFNLRDGYNPSDFKNPLLQKHYKVLHDYLLQIETTFDENETPNTKKDRMMREDDSLRKLYYIRNKILESEKSEDPIIQRLNKYVKIWNMFYKKFNDDNISIKEEKKPFDKKPKFNI
Take B2: the binding result in assay [4] is listed as “no binding”.
